According to PubChem BioAssay AID2417 (National Center for Advancing Translational Sciences (NCATS), 2010):
The whole screen tested about 140,000 compounds, of which about 4,300 (3.1%) were called active. The shares of active, inactive and inconclusive entries below differ from those in the screen.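 The calls were made as follows: active = readout at or below -70, meaning at least 70% loss of cells showing the perinucleolar compartment, a nuclear body marking cancer cells; inconclusive = readout between -30 and a set limit; inactive = the rest.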

Assay: High Content Assay for Compounds that inhibit the Assembly of the Perinucleolar Compartment;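 also: plate controls were DMSO wells for no effect and camptothecin positive control wells for full effect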
Conditions: PC3M PTB-GFP, PNC prevalence imaging, 16 h; at 10 µM; active compounds read low
Outline: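 PC3M cells stably expressing PTB-GFP, 750–1000 cells/well, treated 16 h at 37 °C with compound (23 nl of library stock), in duplicate. After paraformaldehyde fixation and Hoechst stain, imaged at 20x; PNC prevalence scored by image analysis.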

Row | SMILES | activity change (PNC), negative = inhibition
1 | COc1cccc(Nc2nc(-c3sc(NC(=O)c4ccccc4)nc3C)cs2)c1 | inconclusive: -34.7%
2 | CN(C)c1ccc(NS(=O)(=O)c2ccc(Cl)cc2)cc1 | inactive: 8.46%
3 | CCc1ccc(C(=O)CSc2nc3cc(S(=O)(=O)N4CCOCC4)ccc3n2CC)cc1 | inconclusive: -60.5%
4 | Oc1ccccc1/C=N/Nc1nccnc1Cl | active: -87.7%
5 | O=C(N/N=C/c1c[nH]c2ccccc12)c1sc2ccccc2c1Cl | inconclusive: -32.8%
6 | O=C(Cn1cnc2ccccc21)NCCCN1CCOCC1 | inconclusive: -31.9%
7 | Nc1nnc(SCC(=O)NCCOc2ccccc2)s1 | inconclusive: -36.4%
8 | O=C(Nc1cccc(Cl)c1)C1CCCN(S(=O)(=O)c2ccc(F)cc2)C1 (configuration not stated) | inactive: -9.06%
9 | CN(C)c1ccc(/C=N/N(Cc2ccccc2)c2ccccc2)cc1 | inactive: -6.4%
10 | CCOc1ccc(NC(=O)N(C2CCCCCC2)C2CCN(C(C)=O)CC2)cc1 | inconclusive: -49.6%
11 | Cc1ccc(C(=O)N/C(=C/c2ccc(-c3cccc([N+](=O)[O-])c3)o2)C(=O)NC(C)C)cc1 | inactive: -10.1%
12 | C=CCn1c(SCC(=O)N2CCc3ccccc3C2)nc2sc(CC)cc2c1=O | inconclusive: -50.3%
13 | COCCNC(=O)c1ccccc1NC(=O)c1ccccc1N(C)S(C)(=O)=O | active: -111%
14 | CCCOc1ccc(C2c3c(oc4ccccc4c3=O)C(=O)N2CCN(CC)CC)cc1OC (configuration not stated) | inconclusive: -70.5%
15 | c1ccc(CCNc2ncnc3c2nnn3Cc2ccccc2)cc1 | inactive: -5.12%
16 | CCN(CC)C(=O)c1c[nH]c2ccc(S(=O)(=O)Nc3cc(C)cc(C)c3)cc2c1=O | inactive: 6.5%
17 | COc1ccccc1-n1c(N)c(C(N)=O)sc1=S | inactive: -20.3%
18 | CCN(C(=O)CN1CCN(S(=O)(=O)c2cc(Cl)ccc2Cl)CC1)c1c(N)n(Cc2ccccc2)c(=O)[nH]c1=O | inconclusive: -40.3%
19 | Cc1cc(C=O)c2c(c1)C=CC1(Oc3ccccc3C(=O)N1C)O2 (configuration not stated) | inconclusive: -69.7%

Gathered by group, those above containing an aryl thioether with sulfur outside any ring.
Row | SMILES | activity change (PNC), negative = inhibition
3 | CCc1ccc(C(=O)CSc2nc3cc(S(=O)(=O)N4CCOCC4)ccc3n2CC)cc1 | inconclusive: -60.5%
7 | Nc1nnc(SCC(=O)NCCOc2ccccc2)s1 | inconclusive: -36.4%
12 | C=CCn1c(SCC(=O)N2CCc3ccccc3C2)nc2sc(CC)cc2c1=O | inconclusive: -50.3%

Remaining list, next part

Row | SMILES | activity change (PNC), negative = inhibition
20 | CCOC(=O)N1CCN(CC(O)COCc2ccccc2)CC1 (configuration not stated) | inconclusive: -43%
21 | O=C(Cc1ccc([N+](=O)[O-])cc1)Nc1nnc(C2CC2)s1 | inconclusive: -40.3%
22 | O=S(=O)(NCC(O)COCc1ccco1)c1cccs1 (configuration not stated) | inconclusive: -32.6%
23 | CC1CCCC(NC(=S)NC(=O)c2cncc(Br)c2)C1C (configuration not stated) | inactive: 0.414%
24 | COCCCn1c(SCC(=O)Nc2cccc(C(=O)OC)c2)nnc1-c1ccncc1 | inconclusive: -53%
25 | CCOC(=O)C(C(=O)NCCCN1CCOCC1)C1CCCCC1 (configuration not stated) | active: -100%
26 | O=C(c1ccco1)N1CCN(C2CCCC2)CC1 | active: -101%
27 | CCN(CC)C(=O)NC1CC2CCCC(C1)N2Cc1ccccc1 (configuration not stated) | active: -92.3%
28 | N#Cc1cccc(Cn2nnc(-c3ccccc3)n2)c1 | inactive: 6.5%
29 | Cc1ccc(OCc2nnc(NC(=O)OCC(C)C)s2)c(C)c1 | inactive: 33.3%
30 | CC(Sc1nc(-c2ccccc2)cc(C(F)(F)F)n1)C(=O)N1CCC(C(N)=O)CC1 (configuration not stated) | inconclusive: -42.7%
31 | CC1(C)CC(=O)C(CCCN2C(=O)c3ccccc3C2=O)C(=O)C1 | inactive: 8.7%
32 | O=C(O)c1cccc(CSc2nnc(Cc3ccccc3)o2)c1 | inconclusive: -49%
33 | Cc1ccccc1-c1nc(CN2CCC(C(=O)NCCCN3CC(C)CC(C)C3)CC2)c(C)o1 (configuration not stated) | inconclusive: -74.2%
34 | Fc1ccc(Nc2ncnc3sc4c(c23)CCC4)cc1 | inconclusive: -44.7%
35 | Cc1ccc(C)c(C(=O)CSc2nnnn2C(C)C)c1 | inconclusive: -46.4%
36 | Cc1ccc(C2=N/C(=C/N3CCOCC3)C(=O)O2)cc1 | inconclusive: -45.9%
37 | CCOCCCN1C(=O)CN(C2CCCCC2)C(=O)C1c1ccc(OC)c(OC)c1 (configuration not stated) | inconclusive: -51%
38 | CC(C(=O)Nc1cccc([N+](=O)[O-])c1)N1CCN(C/C=C/c2ccccc2)CC1 (configuration not stated) | inconclusive: -40.3%

Row | SMILES | activity change (PNC), negative = inhibition
39 | Cn1c(=O)cc(SCC(=O)NCC2CCCO2)c2ccccc21 (configuration not stated) | inactive: -7.91%
40 | CCNc1nc(NCC)nc(N/N=C/c2ccc([N+](=O)[O-])o2)n1 | inactive: -2.18%
41 | O=C(Nc1ccc(O)c(-c2nc3ccccc3o2)c1)C1(c2ccc(Cl)cc2)CCCC1 | inconclusive: -55.9%
42 | CCCCOc1ccc(NC(=O)c2cc(F)c(F)cc2Cl)cc1 | inconclusive: -52.2%
43 | Cc1ccc(N(CC(=O)NC2CCC(C)CC2)S(=O)(=O)c2cccnc2)cc1 (configuration not stated) | inconclusive: -41.3%
44 | O=[N+]([O-])c1ccc(/C=N/Nc2nc(N3CCCC3)nc(N3CCCC3)n2)o1 | inconclusive: -34.1%
45 | O=C(CN1CCN(C(=O)c2cccc(F)c2)CC1)Nc1ccccc1F | inactive: 6.16%
46 | Cc1noc(C)c1C(=O)NC(C)c1ccc2c(c1)OCO2 (configuration not stated) | inconclusive: -40.6%
47 | COc1ccc(OC)c(NC(=O)Nc2ccccc2C)c1 | inactive: 8.74%
48 | CCCNC(=O)c1oc2ccc3c(c2c1C)C(=O)CC(C)(C)O3 | inconclusive: -51.1%
49 | Cc1cc(C)n(-c2cc(N3CCOCC3)nc(-c3ccccc3)n2)n1 | inconclusive: -45.3%
50 | Cn1c(=O)n(Cc2ccc(Cl)cc2)c(=O)c2c1nc1n2CCN1Cc1ccco1 | inactive: -6.79%
51 | CCCCCn1c(-c2ccco2)nc2nc3ccccc3nc21 | inconclusive: -35.8%
52 | COc1cc2c(cc1NC(=O)Nc1ccccc1)oc1ccccc12 | inconclusive: -37.5%
53 | S=C(NCc1ccco1)Nc1cc(Cl)c(Cl)cc1Cl | inconclusive: -42.6%
54 | Cc1nn(-c2ccc(F)cc2)c(Cl)c1/C=N/NC(=O)c1cccc(S(=O)(=O)N2CCCC2)c1 | inconclusive: -67.9%
55 | COCCNC(=S)N/N=C(\C)c1ccc(OC)cc1 | inconclusive: -33.4%
56 | Cc1ccc(NC(=O)CN(C)Cc2ccc(F)cc2)c([N+](=O)[O-])c1 | inconclusive: -47.1%
57 | CCOC(=O)c1sc(NC(=O)CSc2nc3c(cc2C#N)CCCCCC3)c(C#N)c1C | inconclusive: -62.6%
